# Experimental data taken from PMC5594048.
# Protein sequences, listed by entry. Tags and fused reporters are not part of them. Lines headed by an entry give the natural chain unless they say otherwise; changes in a name come on top.
# UniProt Q39026: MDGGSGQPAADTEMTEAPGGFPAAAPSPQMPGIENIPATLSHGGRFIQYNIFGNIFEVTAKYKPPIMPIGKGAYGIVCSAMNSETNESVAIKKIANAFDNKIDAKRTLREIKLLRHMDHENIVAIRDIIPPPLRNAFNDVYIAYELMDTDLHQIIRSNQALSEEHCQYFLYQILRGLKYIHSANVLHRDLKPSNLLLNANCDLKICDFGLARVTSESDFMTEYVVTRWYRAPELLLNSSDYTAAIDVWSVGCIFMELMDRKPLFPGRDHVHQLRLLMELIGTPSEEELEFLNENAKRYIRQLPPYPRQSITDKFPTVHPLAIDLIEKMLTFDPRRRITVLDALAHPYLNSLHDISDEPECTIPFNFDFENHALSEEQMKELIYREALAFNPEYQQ
# UniProt Q6NN02: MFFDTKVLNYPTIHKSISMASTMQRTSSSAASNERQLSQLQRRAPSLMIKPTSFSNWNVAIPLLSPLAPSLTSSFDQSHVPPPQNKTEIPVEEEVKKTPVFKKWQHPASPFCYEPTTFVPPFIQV
# These are yes or no findings as the source states them, for the method shown. In cells and extracts the contact can be indirect. For some assays here: Binding can be weak; no strength is given. For some assays here: Where a sequence is shown, tags or fusion partners need not be part of it.
# Assays:
# Experiment in all cases: split reporter; BiFC in Arabidopsis mesophyll protoplasts transiently co-expressing cYFP fusions of PRP/PH1/PH2 and nYFP fusions of MAPKs; confocal microscopy; for wild type against docking site mutants with MPK6 a p35S-CFP plasmid was co-transformed and YFP/CFP ratios were calculated
# [1] = biological target: MPK6 fused to the N-terminal half of YFP (MPK6-nYFP) (Arabidopsis thaliana) (UniProt Q39026)
# [2] = biological target: T1, MPK3 fused to the N-terminal half of YFP (MPK3-nYFP) (Arabidopsis thaliana) (UniProt Q39023)
# T1 sequence: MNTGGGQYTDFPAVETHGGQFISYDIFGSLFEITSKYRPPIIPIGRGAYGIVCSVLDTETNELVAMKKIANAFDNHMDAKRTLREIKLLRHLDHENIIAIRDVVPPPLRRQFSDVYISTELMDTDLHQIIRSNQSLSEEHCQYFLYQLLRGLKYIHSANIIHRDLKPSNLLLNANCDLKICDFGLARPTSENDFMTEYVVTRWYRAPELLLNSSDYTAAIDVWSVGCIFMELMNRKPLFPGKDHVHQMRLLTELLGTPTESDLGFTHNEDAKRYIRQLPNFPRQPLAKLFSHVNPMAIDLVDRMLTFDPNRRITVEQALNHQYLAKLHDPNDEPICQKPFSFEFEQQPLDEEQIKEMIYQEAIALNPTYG
# [3] = biological target: T2, MPK11 fused to the N-terminal half of YFP (MPK11-nYFP) (Arabidopsis thaliana) (UniProt Q9LMM5)
# T2 sequence: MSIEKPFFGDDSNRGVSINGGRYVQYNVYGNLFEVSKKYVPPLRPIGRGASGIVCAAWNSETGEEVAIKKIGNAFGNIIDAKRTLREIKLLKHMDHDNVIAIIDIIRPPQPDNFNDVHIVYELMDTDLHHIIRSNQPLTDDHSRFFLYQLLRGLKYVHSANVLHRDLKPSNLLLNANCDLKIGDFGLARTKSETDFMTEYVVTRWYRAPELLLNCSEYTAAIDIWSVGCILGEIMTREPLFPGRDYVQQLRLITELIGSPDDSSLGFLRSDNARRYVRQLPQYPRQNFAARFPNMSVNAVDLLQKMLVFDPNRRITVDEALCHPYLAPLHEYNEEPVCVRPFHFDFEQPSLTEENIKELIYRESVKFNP
# [4] = biological target: T3, MPK8 fused to the N-terminal half of YFP (MPK8-nYFP) (Arabidopsis thaliana) (UniProt Q9LM33)
# T3 sequence: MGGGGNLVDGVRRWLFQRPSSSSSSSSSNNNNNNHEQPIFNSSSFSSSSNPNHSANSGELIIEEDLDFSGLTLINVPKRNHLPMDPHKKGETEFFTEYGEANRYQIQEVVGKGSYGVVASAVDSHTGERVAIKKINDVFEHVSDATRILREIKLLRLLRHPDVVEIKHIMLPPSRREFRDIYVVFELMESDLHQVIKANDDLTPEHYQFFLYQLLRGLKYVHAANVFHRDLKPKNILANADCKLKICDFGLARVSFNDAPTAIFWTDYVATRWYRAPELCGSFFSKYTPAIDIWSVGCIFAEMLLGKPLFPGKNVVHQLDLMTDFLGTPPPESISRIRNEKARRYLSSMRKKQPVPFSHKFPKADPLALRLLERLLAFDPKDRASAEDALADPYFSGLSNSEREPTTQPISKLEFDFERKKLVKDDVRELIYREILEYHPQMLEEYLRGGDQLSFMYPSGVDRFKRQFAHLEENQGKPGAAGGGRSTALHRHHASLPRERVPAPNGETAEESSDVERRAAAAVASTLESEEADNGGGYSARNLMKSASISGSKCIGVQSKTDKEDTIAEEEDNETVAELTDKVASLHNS
Substance,binding [1],binding [2],binding [3],binding [4]
PH1 MAPK docking site mutant fused to cYFP (PH1 DSM-cYFP) (from UniProt Q6NN02),binds weakly,–,–,–
PH1 fused to the C-terminal half of Yellow Fluorescent Protein (PH1-cYFP) (from UniProt Q6NN02),binds,–,–,–
PH2 fused to the C-terminal half of Yellow Fluorescent Protein (PH2-cYFP) (Arabidopsis thaliana),–,binds,binds,no binding
PRP fused to the C-terminal half of Yellow Fluorescent Protein (PRP-cYFP) (Arabidopsis thaliana),–,binds,binds,no binding
